# Several values for one entry are separate records, joined by “and”; a condition that tells them apart may be missing. Identical values can stand only once. Counter-ions that a name gives are not always drawn. Some of the results follow. This data set is noisy: repeats of one test often differ as much as different tests do.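 Human kidney-derived cells stably carry a construct in which eight TEAD-binding elements drive luciferase, measured by luminescence in a drug-repurposing library screen. A hit is any compound whose signal exceeds the plate mean by more than five robust Z scores.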
# Test system: HEK293A TEAD-LUC reporter
# Test: TEAD-luciferase reporter activity (YAP activation), robust Z score vs plate; higher = stronger YAP/TEAD activation
# Conditions: 24 h
SMILES,TEAD-luciferase reporter activity (compound concentration: 200 nM),TEAD-luciferase reporter activity (compound concentration: 2 uM),TEAD-luciferase reporter activity (compound concentration: 10 uM)
Cn1cccc1C(=O)C(C#N)C(=O)Nc1ccccc1 (stereo not drawn) [Prinomide tromethamine],inactive: -1.84,inactive: 0.00465,inactive: 2.25
COC(=O)COc1ccc(/C(C)=N/OCc2sc(-c3ccc(C(F)(F)F)cc3)nc2C)cc1C,inactive: 0.313,inactive: -0.0428,inactive: -0.312
OCC(O)COc1ccc(Cl)cc1 (stereo not drawn),inactive: -1.91,inactive: -2.06,inactive: 0.263
CC[C@H](C)[C@H](N)C(=O)N1CCSC1 [Isoleucine-thiazolidide],inactive: 4.77,inactive: 0.873,inactive: 1.01
C/C(=C\CNc1ncnc2[nH]cnc12)CO [Zeatin],active: 7.48,inactive: -0.118,inactive: 1.48
CCOC(=O)CC(O)c1cccc2nc(CCc3ccccc3)[nH]c12 (stereo not drawn),inactive: 3.18,inactive: -0.907,inactive: 0.157
CC(O)Cn1cnc2c1c(=O)n(C)c(=O)n2C (stereo not drawn),,inactive: 0.477,
CC(O)Cn1cnc2c1c(=O)n(C)c(=O)n2C (stereo not drawn) [Proxyphylline],inactive: -0.769,,inactive: 0.729
CCC(C)N(CC(O)c1cccn1Cc1ccccc1Cl)C(C)CC (stereo not drawn),inactive: -0.573,inactive: -0.495,inactive: 4.41
CS/C(=N/C#N)NCCCOc1cccc2cnccc12,inactive: 0.234,inactive: 0.139,inactive: -0.276
Cn1cc(C(=O)O)c(=O)c2cc3cc(F)c(N4CCN(c5ccc(F)cc5)CC4)cc3nc21,inactive: -0.161,inactive: -1.14,inactive: -1.74
NC(N)=NCc1ccc2c(c1)OCCO2,inactive: -0.45,inactive: -1.05,inactive: -0.424
CC(=O)OCC(=O)[C@H]1CC[C@H]2[C@@H]3CCC4=CC(=O)CC[C@]4(C)[C@H]3CC[C@]12C,inactive: -0.629,inactive: -1.92,inactive: 1.16
Cn1nc(-c2cccc(F)c2)n(C)c1=S [Suritozole],inactive: 2.6,inactive: 2.04,inactive: 3.3
N=C(N)NCCCC[C@@H]1NC(=O)CCSSC[C@@H](C(N)=O)NC(=O)[C@@H]2CCCN2C(=O)[C@H](Cc2c[nH]c3ccccc23)NC(=O)[C@H](CC(=O)O)NC(=O)CNC1=O [eptifibatide],inactive: -1.32,inactive: 2.07,inactive: 2.55
NC(=NC(=O)c1nc(Cl)c(N)nc1N)NCc1ccccc1 [Benzamil hydrochloride],inactive: -0.255,inactive: -2.43,inactive: -0.233
CCc1cccc2c1c(O)c(C(=O)N(CC)c1ccccc1)c(=O)n2C [Paquinimod],inactive: -0.774,,inactive: 1.51
CCN1CCCCC12Cc1ccccc1CN(C(C)=O)C2 (stereo not drawn),inactive: 1.84,,inactive: 1.33
Cc1cn([C@H]2C=C[C@@H](CO)O2)c(=O)[nH]c1=O [stavudine],,inactive: -0.529,
Cc1cn([C@H]2C=C[C@@H](CO)O2)c(=O)[nH]c1=O,inactive: -0.694,,inactive: 1.82
CC(C)=CCNc1ncnc2c1ncn2[C@@H]1O[C@H](CO)[C@@H](O)[C@H]1O,inactive: -1.25,inactive: 1.44,active: 8.3
CCCc1ccc(NS(=O)(=O)Cc2ccccc2)c(=O)n1CC(=O)NCc1ccccc1C,inactive: -0.578,inactive: -0.926,inactive: 1.3
NC1CCN(c2nc3c(cc2F)c(=O)c(C=O)cn3-c2ccc(F)cc2F)C1 (stereo not drawn),inactive: 1.65,inactive: 0.401,inactive: -0.436
COc1ccc(C2=C(C(=O)O)[C@@H](c3ccc4c(c3)OCO4)Oc3ccc(OC(C)C)cc32)cc1,inactive: -0.636,inactive: 0.396,inactive: 0.0565
O=C(CCCl)NCc1ccccc1,inactive: -0.579,inactive: -0.716,inactive: -0.75
O=C(Nc1ccc(Oc2ccc(Cl)cc2)c(Cl)c1)c1cc(I)cc(I)c1O,inactive: -0.68,inactive: -1.92,inactive: -1.05
CNC(=O)c1ccccc1Nc1cc(Nc2ccc(N3CCOCC3)cc2OC)ncc1C(F)(F)F,inactive: -0.997,inactive: -2.79,inactive: -2.85
C/C=C/C[C@@H](C)[C@@H](O)[C@H]1C(=O)N[C@@H](CC)C(=O)N(C)[C@H](C)C(=O)N(CC)[C@@H](C(C)C)C(=O)N[C@@H](C(C)C)C(=O)N(C)[C@@H](CC(C)C)C(=O)N[C@@H](C)C(=O)N[C@H](C)C(=O)N(C)[C@@H](CC(C)C)C(=O)N(C)[C@@H](CC(C)C)C(=O)N(C)[C@@H](C(C)C)C(=O)N1C [Alisporivir],inactive: -1.48,inactive: -1.12,inactive: 0.538

SMILES,TEAD-luciferase reporter activity (compound concentration: 200 nM),TEAD-luciferase reporter activity (compound concentration: 2 uM),TEAD-luciferase reporter activity (compound concentration: 10 uM)
CCCC(CCC)C(N)=O [Valpromide],inactive: 3.74,inactive: -0.138,inactive: 0.978
COc1cc2c(cc1OC)C(C)N(S(=O)(=O)c1cn(C)c(C)n1)CC2 (stereo not drawn),inactive: -0.525,inactive: -1.09,inactive: 1.07
COc1cc(C(C)=O)ccc1OCCN1CCOCC1,inactive: -1.24,inactive: -0.863,inactive: 3.9
COC(=O)C(CC(C)C)NC(=O)C(N)CC(C)C (stereo not drawn) [Leucylleucine methyl ester],inactive: 1.14,inactive: -0.831,inactive: -0.747
CC[C@@H]1C[C@]1(NC(=O)[C@@H]1C[C@@H]2CN1C(=O)[C@H](C(C)(C)C)NC(=O)OCC(C)(C)CCCCc1cccc3c1CN(C3)C(=O)O2)C(=O)NS(=O)(=O)C1CC1 [Vaniprevir],inactive: 1.91,inactive: -1.67,inactive: 1.44
C=CCNc1nc(NCC=C)nc(N2CCC(NCC(c3ccc(F)cc3)c3ccc(F)cc3)CC2)n1,inactive: -2.34,inactive: -0.851,inactive: -1.02
C[C@H]1CC2C3C[C@H](F)C4=CC(=O)C=CC4(C)[C@@]3(F)C(O)CC2(C)[C@@]1(O)C(=O)CCl (stereo partly drawn),inactive: -0.514,inactive: 3.36,inactive: 1.11
Cc1ccc(C(=O)Nc2ccc(Oc3cc4cnn(C)c4cc3-c3cn[nH]c3)c(F)c2)c(=O)n1-c1ccc(F)cc1 [Merestinib],inactive: -1.37,inactive: -1.39,inactive: -2.42
O=c1cc(-c2ccc(O)cc2)oc2cc(O)cc(O)c12 [Apigenin],inactive: -1.39,,inactive: 1.76
O=c1cc(-c2ccc(O)cc2)oc2cc(O)cc(O)c12,,inactive: -0.438,
CCn1c(/N=N/N(C)C)nc2c1c(=O)n(C)c(=O)n2C [etheophazine],inactive: 3.54,inactive: -0.342,inactive: -1.56
CC1(C)Cc2nc(C3CCCC3)c(C(F)c3ccc(C(F)(F)F)cc3)c(C3CCCCC3)c2[C@@H](O)C1 (stereo partly drawn),inactive: -0.517,inactive: -0.375,inactive: -1.19
Cc1cc(NC(=O)c2c(C)cccc2C)no1 [Soretolide],inactive: 0.808,,inactive: 0.153
CC(CO)(CO)NCc1ccc2c3c(cccc13)-c1ccccc1-2,inactive: 0.217,inactive: 2.23,inactive: 0.424
Cc1cc(OC2CN(Cc3ccc(C#N)cc3)C2)ccc1F,inactive: 1.16,,inactive: -0.46
O=C(O)CN(CCN(CC(=O)O)Cc1ccccc1O)Cc1ccccc1O,inactive: -0.198,,inactive: -0.927
CC(C#Cc1ccc(Cc2ccc(F)cc2)s1)N(O)C(N)=O (stereo not drawn),inactive: 3.37,inactive: -0.613,inactive: 2.81
O=C(c1ccc2nonc2c1)N1CCCCC1,inactive: -0.567,inactive: 0.32,inactive: -1.72
C=C1C[C@@]23CC[C@H]4[C@@](C)(CCC[C@@]4(C)C(=O)O[C@@H]4O[C@H](CO)[C@@H](O)[C@H](O)[C@H]4O)[C@@H]2CC[C@]1(O[C@@H]1O[C@H](CO)[C@@H](O)[C@H](O)[C@H]1O[C@@H]1O[C@H](CO)[C@@H](O)[C@H](O)[C@H]1O)C3 [Stevioside],inactive: -0.0123,inactive: -0.315,inactive: 0.825
O=C1Cc2cc(CCN3CCN(c4nsc5ccccc45)CC3)c(Cl)cc2N1 [Ziprasidone HCl],inactive: -1.4,,inactive: -1.01
O=C1Cc2cc(CCN3CCN(c4nsc5ccccc45)CC3)c(Cl)cc2N1 [ziprasidone],,inactive: -1.18,
COC(=O)[C@H]1Cc2cc(C(=O)CNS(=O)(=O)c3ccc(Cl)cc3)ccc2O1,inactive: -0.917,inactive: -0.4,inactive: -1.29
O=C(O)c1c(O)c(Cc2ccc(Cl)cc2)nc2c3c(ccc12)CCCC3,inactive: 1.66,inactive: -0.956,inactive: 0.216
O=C(NCC1CCCCN1)c1cc(OCC(F)(F)F)ccc1OCC(F)(F)F (stereo not drawn) [flecainide acetate],inactive: -0.416,inactive: -0.648,inactive: -0.562
CCCN1CC(NS(=O)(=O)N(CC)CC)CC2Cc3c(O)cccc3CC21 (stereo not drawn) [Quinagolide hydrochloride],inactive: -1.1,inactive: -0.905,inactive: 0.153
C[C@@H](O)[C@H]1C(=O)N2C(C(=O)O)=C(S[C@H]3CC[S@@](=O)C3)S[C@H]12,inactive: 3.75,inactive: -1.22,inactive: 0.715
CCC(=O)c1cc(C(C)(C)C)cc(CN)c1O,inactive: -0.408,inactive: 0.94 and inactive: -0.619,inactive: -0.0876

# Source: the supplement of paper PMC10735217
